Measurements: PMC5963807
Results are given in words; binding and its absence hold for the method and conditions named. Binding calls can cover weak binding; strength is not graded here. Where a sequence is shown, tags or fusion partners need not be part of it.

Molecular target: CIRV p36 replication protein (split-ubiquitin bait) (carnation Italian ringspot virus)
Assay: two-hybrid; split-ubiquitin-based membrane yeast two-hybrid assay (MYTH); bait co-expressed with NubG-tagged prey in yeast; empty prey vector (NubG) as negative control

B1: Ufe1p, N-terminally tagged split-ubiquitin prey (protein, UniProt P41834 1-346)
chain: MMSDLTPIFRKYVAVIDDARNEQNGIDDHVERKQEDFGNSNETCEMFRDSFIKECARLLKFLVELNKVIKQIEKNYLDDFNMSDAEKDEFDMECRLQIQQYFKKFEFLENYEMERHNLSLKRFQSKSHRWSKILSNKNDNTKHVIHPQDIENGVYEFRLGVLRCLNLWIKYVSSKFTTIQQERLILENKMNFNSTPMPTLSNNADDFSADAIDISVSQSAPVETVQDEVKHYEETISKLTQEQLQVLETEHSELLNQKNEQLKKVETINKTILDIVNIQNELSNHLTVQSQNINLMLNNQDDIELNIKKGNKELRKAKRAAGRTAKMTTYGAIIMGVFILFLDYVG
binding: binds
